Experimental data: PubChem BioAssay AID743121 (NCATS, 2013)
Aim: 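Genes whose silencing strengthens cell killing by camptothecin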 (primary screen). Cells: MDA-MB-231 cells, a human breast cancer line. Reagent: single siRNA against human genes, 20 nM siRNA (0.8 pmol per well). Time to read-out: 120 h (drug added 48 h after transfection, read 72 h later). Treatment: camptothecin 20 nM (about EC30) for 72 h; vehicle 0.1% DMSO in parallel plates. Read-out: 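CellTiter-Glo ATP signal, scaled to control siRNA as percent viability; sensitisation given as log2 of untreated divided by camptothecin-treated viability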. Direction: log2 vehicle/camptothecin viability: higher = stronger sensitisation to camptothecin. Call rule: 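Active genes have an RSA gene-level p-value below 0.001, computed from the ratios of their separate siRNAs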.
This is a random part of about 26,000 deposited reagents. Of all reagents, 167 (0.63%) were called active. 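Calls are per gene from RSA p-values that are not deposited; an individual active-marked siRNA can sensitise only weakly.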 Unmarked entries are inactive. The numbers tell different reagents against one gene apart. Not all columns of the deposit are shown.

AGO4 #1
- log2 vehicle/camptothecin viability: 1.08

AGO4 #2
- log2 vehicle/camptothecin viability: 0.0818

AGO4 #3
- log2 vehicle/camptothecin viability: -0.186

CD6 #1
- log2 vehicle/camptothecin viability: -0.348

CD6 #2
- log2 vehicle/camptothecin viability: -0.12

CD6 #3
- log2 vehicle/camptothecin viability: -0.791

CD6 #4
- log2 vehicle/camptothecin viability: -0.757

HSD17B3 #1
- log2 vehicle/camptothecin viability: -0.0296

HSD17B3 #2
- log2 vehicle/camptothecin viability: -0.586

HSD17B3 #3
- log2 vehicle/camptothecin viability: 0.103

ANGPT2 #1
- log2 vehicle/camptothecin viability: -0.449

ANGPT2 #2
- log2 vehicle/camptothecin viability: 0.429

ANGPT2 #3
- log2 vehicle/camptothecin viability: -0.418

HSPD1 #1
- log2 vehicle/camptothecin viability: -0.455

HSPD1 #2
- log2 vehicle/camptothecin viability: -0.207

HSPD1 #3
- log2 vehicle/camptothecin viability: -0.218

GPHB5 #1
- log2 vehicle/camptothecin viability: 0.0768

GPHB5 #2
- log2 vehicle/camptothecin viability: 0.194

GPHB5 #3
- log2 vehicle/camptothecin viability: 0.149

GPHB5 #4
- log2 vehicle/camptothecin viability: -0.0244

LTA4H #1
- log2 vehicle/camptothecin viability: 0.13

LTA4H #2
- log2 vehicle/camptothecin viability: -0.645

LTA4H #3
- log2 vehicle/camptothecin viability: 0.0655

LTA4H #4
- log2 vehicle/camptothecin viability: -0.345

Already shown: entries from further up.
LTA4H #1
- log2 vehicle/camptothecin viability: 0.13

LTA4H #2
- log2 vehicle/camptothecin viability: -0.645
